Values of other authors as cited in patent US9155760B2, “Method of prophylaxis of bacterial vaginosis” (STARPHARMA PTY LIMITED, priority 2011, dated 2015).
For at least one compound, name, drawing or mass did not settle the structure.

System: Bacteroides fragilis 0123 (ATCC 25285)
Conditions: Clinical and Laboratory Standards Institute Acceptable Limits for Quality Control Strains; B. fragilis 0123; cited from earlier work

C[C@@H](O)[C@H]1C(=O)N2C(C(=O)O)=C(SCCN=CN)C[C@H]12 [Imipenem]
MIC QC Range: (0.03-0.12)^1 μg/mL
